Assay results reported in article PMC9831982 (Nature Communications, 2023).
Results are given in words; binding and its absence hold for the method and conditions named. Binding seen in cells or lysates may run through a third protein. Some entries that bind do so weakly or less than the wild type. Tags and fused reporters may be left off the sequences shown.

Sequences of proteins named here, by UniProt entry; tags and fusion partners are left off.
UniProt P53327: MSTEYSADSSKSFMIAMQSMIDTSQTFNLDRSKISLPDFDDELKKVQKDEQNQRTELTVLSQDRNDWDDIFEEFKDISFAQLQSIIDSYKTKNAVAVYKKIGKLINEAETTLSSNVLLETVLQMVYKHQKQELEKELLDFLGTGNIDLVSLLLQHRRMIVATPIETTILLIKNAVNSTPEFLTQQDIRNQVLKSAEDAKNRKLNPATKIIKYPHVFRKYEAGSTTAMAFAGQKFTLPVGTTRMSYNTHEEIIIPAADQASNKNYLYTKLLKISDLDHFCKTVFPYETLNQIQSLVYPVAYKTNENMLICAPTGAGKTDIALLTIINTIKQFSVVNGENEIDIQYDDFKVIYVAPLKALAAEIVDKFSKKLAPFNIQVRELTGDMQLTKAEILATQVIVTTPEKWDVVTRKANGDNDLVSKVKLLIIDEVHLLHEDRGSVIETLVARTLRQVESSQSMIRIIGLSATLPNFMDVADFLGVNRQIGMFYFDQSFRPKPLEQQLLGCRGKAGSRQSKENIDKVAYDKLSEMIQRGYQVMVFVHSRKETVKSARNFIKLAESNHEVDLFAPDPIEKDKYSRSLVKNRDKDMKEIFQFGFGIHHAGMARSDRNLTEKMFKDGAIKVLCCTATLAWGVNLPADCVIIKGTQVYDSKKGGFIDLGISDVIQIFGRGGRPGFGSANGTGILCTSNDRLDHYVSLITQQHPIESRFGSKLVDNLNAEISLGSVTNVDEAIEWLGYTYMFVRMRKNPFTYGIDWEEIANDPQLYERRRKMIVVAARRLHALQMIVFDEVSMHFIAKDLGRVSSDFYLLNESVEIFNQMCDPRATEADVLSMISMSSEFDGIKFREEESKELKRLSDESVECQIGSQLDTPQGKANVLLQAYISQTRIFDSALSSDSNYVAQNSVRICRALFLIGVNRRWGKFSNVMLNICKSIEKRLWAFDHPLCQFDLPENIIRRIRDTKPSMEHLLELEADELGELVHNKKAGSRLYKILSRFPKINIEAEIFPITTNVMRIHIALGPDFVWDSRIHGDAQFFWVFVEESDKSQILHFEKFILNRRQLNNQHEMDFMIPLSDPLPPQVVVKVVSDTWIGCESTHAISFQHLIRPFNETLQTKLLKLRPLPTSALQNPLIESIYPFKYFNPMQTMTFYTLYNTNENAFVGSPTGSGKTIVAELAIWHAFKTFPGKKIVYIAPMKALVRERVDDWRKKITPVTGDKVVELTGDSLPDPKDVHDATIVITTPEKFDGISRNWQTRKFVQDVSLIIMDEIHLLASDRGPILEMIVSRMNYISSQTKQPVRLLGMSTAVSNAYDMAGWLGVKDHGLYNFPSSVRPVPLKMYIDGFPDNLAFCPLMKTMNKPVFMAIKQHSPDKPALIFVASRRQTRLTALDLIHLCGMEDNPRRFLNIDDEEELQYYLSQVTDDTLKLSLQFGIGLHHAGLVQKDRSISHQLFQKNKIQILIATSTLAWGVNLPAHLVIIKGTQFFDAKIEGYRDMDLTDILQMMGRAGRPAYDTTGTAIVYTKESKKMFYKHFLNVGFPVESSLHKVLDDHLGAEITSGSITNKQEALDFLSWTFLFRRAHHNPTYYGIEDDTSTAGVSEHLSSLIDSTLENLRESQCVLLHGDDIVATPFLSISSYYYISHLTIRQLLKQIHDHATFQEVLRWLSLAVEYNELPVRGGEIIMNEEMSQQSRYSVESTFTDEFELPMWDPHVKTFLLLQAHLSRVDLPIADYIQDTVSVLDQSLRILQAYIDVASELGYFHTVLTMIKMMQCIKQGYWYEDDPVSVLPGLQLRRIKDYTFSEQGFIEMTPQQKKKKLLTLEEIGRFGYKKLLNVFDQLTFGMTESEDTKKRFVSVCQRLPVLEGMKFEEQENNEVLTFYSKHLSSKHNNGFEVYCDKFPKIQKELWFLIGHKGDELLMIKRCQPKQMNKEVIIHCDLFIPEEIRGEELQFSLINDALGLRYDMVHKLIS

B1: Rqt4 with the zinc-finger domain (residues 145–240) deleted (Flag-tagged) (protein, UniProt P36119)
chain: MTRKQAIDYAIKQVPQILPLEESDVKALCEQVLSTSSDDPEQIASKFLEFLGHEDLSFEFVMKFNELLNQNDKKEEKKTKNVHLEHTAPTSWKNESKQPTNNYINKKGDEKPKKLKDEKKSSTTRPTVQPSNQSTQSNPIKEKKSSSLSNASNGANVPKKKTKTYKITSGMGKNLFAEQDKLFDFIERKRERERKRNEVLKLQEEKEESEAKERQASEHDHKAEENPELLAAQERLDRLLYFQDTSAERTKIIDNASDFDMNQEVGLWGSARERALALKKQQRNLRKWEKVEKERNGRREKYVVSMNIGSNGKVTMTEVPKDTENVIAGSDDDISDISDEEDISDLKHIHALKSEINTTKSLENLHLQSKAWDYERDKKQFDRPTYVKKNSDTAQQNRKTEEKAHDMQAYDLKSRVQVDQNADASVEQNILAVL
B2: Rqt4 as imaged by HS-AFM in the Slh1/Rqt4 complex (natural protein, S. cerevisiae, UniProt P36119 1-530, looked up)
chain: MTRKQAIDYAIKQVPQILPLEESDVKALCEQVLSTSSDDPEQIASKFLEFLGHEDLSFEFVMKFNELLNQNDKKEEKKTKNVHLEHTAPTSWKNESKQPTNNYINKKGDEKPKKLKDEKKSSTTRPTVQPSNQSTQSNPIKEKKEHRSKGKLQSLQEIDEAIKMLELRDSGSSKNCNCQGTRHPVFDIAPNCLHCGKVVCVIEGLNKGKCGHCHEQLISDNERTQMVEILNQEKNELNGSSSSLSNASNGANVPKKKTKTYKITSGMGKNLFAEQDKLFDFIERKRERERKRNEVLKLQEEKEESEAKERQASEHDHKAEENPELLAAQERLDRLLYFQDTSAERTKIIDNASDFDMNQEVGLWGSARERALALKKQQRNLRKWEKVEKERNGRREKYVVSMNIGSNGKVTMTEVPKDTENVIAGSDDDISDISDEEDISDLKHIHALKSEINTTKSLENLHLQSKAWDYERDKKQFDRPTYVKKNSDTAQQNRKTEEKAHDMQAYDLKSRVQVDQNADASVEQNILAVL
notes: Rqt4, S. cerevisiae
B3: Cue3 as imaged by HS-AFM in the Slh1/Cue3 complex (natural protein, S. cerevisiae, UniProt P53137 1-624, looked up)
chain: MLSRYNRVIEINGGNADISLPIVKFPPFKLRAQLIEKDPVVWLHLIETYVTYFEYLMQGANVELLDESTLDHLRLFLRTYLHEIADEEGKLLSLGINHDVSEQLYLLKGWIFSLIKKCGLLHLQIFGDSLWNLIKVYVRRNPDSIRGLIDGSLKPRINTQRVQLDKSYQVQQHLKQLIESGKFKRIDLRCVEDLLSAKSMQPNKFAENFFTANWIEILEALWAKGQGRGHKEARELIIISLFSVSADRLLKITKELGISNFETLALYPLLGTMLINEGVHKRLPDLKSKLLFLNLGGLSMDEGDHMSYPTSSGTEVNEEQLSALMELFPQFSKYQLSQTLLAYDNNIELVTNKIFEDPTIIEAFSREPAEEEVEPVSDGDNASFTEELSILDRGDSSKNKELDKKIISEGVPDELRNKTLTRALKLLYEADEDERDDTYDEADVNRSDPSKRIGLQEDEESYDTKDDSNEVRQDHNYHIVEAYLWNLLKEDPKLFERSKRGTKVRKTMKEMTSWSDEKIEGWCRMLERSPTRARLLEKKFMFKGNSKTGKTSYVHNRDSQNDGNVVKEQAKQKKSENIKKHEPQSTEQKKRQHAKNEKRKGARANHNRKKGHDKKLARAGNNAI
notes: Cue3 (RQT3), S. cerevisiae
B4: Rqt4 with the N-terminal domain (residues 3–70) deleted (Flag-tagged) (protein, UniProt P36119)
chain: MTNDKKEEKKTKNVHLEHTAPTSWKNESKQPTNNYINKKGDEKPKKLKDEKKSSTTRPTVQPSNQSTQSNPIKEKKEHRSKGKLQSLQEIDEAIKMLELRDSGSSKNCNCQGTRHPVFDIAPNCLHCGKVVCVIEGLNKGKCGHCHEQLISDNERTQMVEILNQEKNELNGSSSSLSNASNGANVPKKKTKTYKITSGMGKNLFAEQDKLFDFIERKRERERKRNEVLKLQEEKEESEAKERQASEHDHKAEENPELLAAQERLDRLLYFQDTSAERTKIIDNASDFDMNQEVGLWGSARERALALKKQQRNLRKWEKVEKERNGRREKYVVSMNIGSNGKVTMTEVPKDTENVIAGSDDDISDISDEEDISDLKHIHALKSEINTTKSLENLHLQSKAWDYERDKKQFDRPTYVKKNSDTAQQNRKTEEKAHDMQAYDLKSRVQVDQNADASVEQNILAVL

Molecular target: Slh1-Flag-TEV-protein A (S. cerevisiae) (UniProt P53327)
Experiment: pull-down; RQT factors or mutants co-expressed in yeast; complex captured from the lysate via Slh1-Flag-TEV-protein A on IgG beads in RQT-R buffer (50 mM Tris pH 7.5, 100 mM NaCl, 2.5 mM MgCl2, 0.1% NP-40, 10% glycerol, 100 mM L-arginine); co-purified factors seen by CBB staining or anti-Flag blot

| binding | Binder |
| --- | --- |
| no binding | B1 |
| binds | B2 |
| binds | B3 |
| binds | B4 |
